± gives the standard deviation. This is a selection; strong and weak results do not stand in their true shares. Many entries were measured with a wide error.

This experiment concerns MIWI (PIWIL1) piRISC loaded with piRNA #1 (30 nt). As to the kind of experiment: pre-steady-state target cleavage rate (min^-1); MIWI and MILI are mouse PIWI proteins and EfPiwi is from a freshwater sponge; tags in brackets are library labels; higher = faster piRNA-guided slicing of the target. The settings on record: guide: piRNA #1 5'p-UGAGGUAGUAGGUUGUAUAGUAUCCAGAGG; auxiliary factor: 500 nM mouse GTSF1. In a few lines:
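A transcribed, DNA-blocked target RNA library (0.1 nM) and 1 nM active affinity-purified piRISC bearing one synthetic guide were incubated in HEPES–potassium acetate buffer at 33 °C for 0–8 or 0–960 min, either with or without 500 nM GTSF1 partner protein. Uncleaved targets were sequenced, normalised to depth and to weakly complementary targets, and pooled over three trials, with k3 capped at 0.0001 min^-1. The pre-steady-state cleavage rate was derived with a burst-and-steady-state fit.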
In the case of GGACAGGAUACUAAACAACCUACUACCUCA, the “pre-steady-state target cleavage rate” value was found to be 1.64 ± 0.11.
As for CCUCUGGAUACUAUACAACCUACUACCCUCA, the “pre-steady-state target cleavage rate” value is 1.38 ± 0.097.
In the case of GGACUUGAUACUAUACAACCUACUACCUCA, the “pre-steady-state target cleavage rate” value worked out at 1.73 ± 0.12.
For GGACUGGAUACUAUAGAACCUACUUCCUCA, the “pre-steady-state target cleavage rate” value came out at 0.000396 ± 0.014.
For GGAGACCUAUCUAUACAACGAACUACCUCA, the “pre-steady-state target cleavage rate” value turned out to be 0.000191 ± 0.014.
Regarding GGUCUGGAUACUAUACAACCUACAACCUGA, the “pre-steady-state target cleavage rate” value stood at 0.00204 ± 0.0042.
In the case of GGUCUGGAUACUAUAGAACCUACUUCCUCA, the “pre-steady-state target cleavage rate” value stood at 0.000427 ± 0.0092.
Turning to GGUCUGGAUACUAUACUACCUACAACCUCA, the “pre-steady-state target cleavage rate” value is 0.456 ± 0.054.
With GGAGACCUAUGAUAUGUUGCUACUGACCUCA, the “pre-steady-state target cleavage rate” value is 0.000103 ± 0.028.
With GGUCUUGAUACUAUACAACCUACUACCUCA the figure was 1.87 ± 0.11.
Consider GGAGACCUAUGAAUACUACCUACUACCUCA, for which the “pre-steady-state target cleavage rate” value was found to be 0.000181 ± 0.015.
With CCUCAGGAUUCUAUACAACCUACUACCUCA the figure was 2.24 ± 0.13; with GGAGACCUAUGAUAUGUUCCUACAUGCUCA, 0.00027 ± 0.017.
For GCUCUGGAUACUAUACAACCAUCUACCUCA, the “pre-steady-state target cleavage rate” value is 0.0463 ± 0.011.
For the sequence CCUCACGAUACUAUACAACCUACUACCUCA, the “pre-steady-state target cleavage rate” value was determined as 2.1 ± 0.12.
With GGUGUGCAUACUAUACAACCUACUACCUCA, the “pre-steady-state target cleavage rate” value was found to be 1.73 ± 0.1.
CCUGUGGUUACUAUACAACCUACUACCUCA: the “pre-steady-state target cleavage rate” value turned out to be 1.17 ± 0.058.

For the origin of these results see the supplement of paper PMC10338343.
